PubChem BioAssay AID1224826 | NIAID – 2016
Shown is an unselected part of about 17,000 reagents. About 1,110 of them (6.6%) count as active. 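Active means lowered or raised reporter signal; replicate intensities are raw and not normalised per plate.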 Not all columns of the deposit are shown.

Purpose: 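Genes that change LPS-induced Tnf promoter activity in mouse macrophages when knocked down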 (primary screen)
Cell system: RAW264.7 G9 macrophages from mouse bearing reporters for p65 (GFP) and the Tnf promoter (mCherry)
Knock-down reagent: siRNA pool against mouse genes, 100 nM
Time to read-out: 16 h of LPS stimulation, after 2 days of siRNA transfection
Treatment: bacterial lipopolysaccharide (Salmonella minnesota R595), 10 ng/ml
Measurement: 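Imaged Tnf reporter mCherry in nuclei, minus background, normalised per plate to the median and expressed as robust z-scores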
Reading the numbers: Tnf reporter robust z-score: higher = stronger Tnf promoter reporter signal after LPS
Rule for the call: 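a well counts as active at a score of -1.3 or below (Tlr4 knock-down control median) or above 3 (raised signal); controls and wells holding fewer than 50 cells are excluded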
Meaning of the calls: active = Tnf reporter clearly lowered or raised; inactive = no clear change in Tnf reporter

The opening 4 entries as a preview:
target | Tnf reporter robust z-score | fewer than 50 cells in well | call
Or13a25 | -1.94 | enough cells in well | active
Epb41l5 | 0.3 | enough cells in well | inactive
Pde2a | 0.04 | enough cells in well | inactive
Epha3 | -0.91 | enough cells in well | inactive

The listing, from the first entry:
target | Tnf reporter robust z-score | fewer than 50 cells in well | call
Or13a25 | -1.94 | enough cells in well | active
Epb41l5 | 0.3 | enough cells in well | inactive
Pde2a | 0.04 | enough cells in well | inactive
Epha3 | -0.91 | enough cells in well | inactive
Adgrb2 | 0.26 | enough cells in well | inactive
Slx9 | 1.86 | enough cells in well | inactive
Pnpla2 | -0.15 | enough cells in well | inactive
Spag1 | -1.43 | enough cells in well | active
Or10u3 | -0.91 | enough cells in well | inactive
Plrg1 | -0.99 | enough cells in well | inactive
Dyrk2 | 0.97 | enough cells in well | inactive
Adamts7 | -1.21 | enough cells in well | inactive
Stard3 | 1.71 | enough cells in well | inactive
Slc25a16 | 0.58 | enough cells in well | inactive
Scd3 | 2.74 | enough cells in well | inactive
Dlx2 | 0.08 | enough cells in well | inactive
Epc1 | 0.1 | enough cells in well | inactive
Or7g28 | – | fewer than 50 cells per well; well left out of calls | inactive
Agtrap | 0.43 | enough cells in well | inactive
H4c8 | 0.1 | enough cells in well | inactive
Hikeshi | -1.04 | enough cells in well | inactive
Mycn | -0.24 | enough cells in well | inactive
Adamdec1 | -0.02 | enough cells in well | inactive
Timm23 | 2.74 | enough cells in well | inactive
Il15ra | -0.5 | enough cells in well | inactive
Fcsk | -0.61 | enough cells in well | inactive
Mtss2 | – | fewer than 50 cells per well; well left out of calls | inactive
Smc1a | – | fewer than 50 cells per well; well left out of calls | inactive
Zbtb22 | -0.49 | enough cells in well | inactive
Prim2 | -0.63 | enough cells in well | inactive
Acrv1 | 0.04 | enough cells in well | inactive
Chpt1 | -0.45 | enough cells in well | inactive
Ppy | – | fewer than 50 cells per well; well left out of calls | inactive
Slc17a2 | 0 | enough cells in well | inactive
Hivep3 | -1.24 | enough cells in well | inactive
Mrpl36 | 0.39 | enough cells in well | inactive
Foxj3 | -0.93 | enough cells in well | inactive
Siglece | 0.11 | enough cells in well | inactive
Rab3c | 0.23 | enough cells in well | inactive
Hvcn1 | -0.52 | enough cells in well | inactive
